Test results published in paper PMC12974444.
Results are given in words; binding and its absence hold for the method and conditions named. Binding seen in cells or lysates may run through a third protein. A result given as binding can be weak or reduced; the word gives no strength. Where a sequence is shown, tags or fusion partners need not be part of it.

These substances were tested against T1, endogenous FLAG-Strep-Med19 fusion (rat (endogenous in INS-1)) (UniProt D3ZAP1) (assay: co-IP; FLAG immunoprecipitation of endogenous FLAG-Med19 from INS-1 extracts (Med14 WT and Med14 S983A Crispr knock-in lines; control, FSK, H-89, Ex-4, Semaglutide or Tirzepatide treatment), western blot of the immunoprecipitates).
T1 sequence: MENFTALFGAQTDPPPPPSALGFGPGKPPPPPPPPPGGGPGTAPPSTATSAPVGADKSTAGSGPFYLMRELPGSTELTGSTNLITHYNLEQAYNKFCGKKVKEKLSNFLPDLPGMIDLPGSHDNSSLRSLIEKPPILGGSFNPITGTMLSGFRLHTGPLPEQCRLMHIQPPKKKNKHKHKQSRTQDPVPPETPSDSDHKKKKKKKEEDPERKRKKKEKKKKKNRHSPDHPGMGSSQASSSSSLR

binding, binds:
Med12 (rat (endogenous in INS-1))
Med26 (rat (endogenous in INS-1))
Med30 (rat (endogenous in INS-1))
